Assay results as given in publication PMC5996148.
“And” between values parts separate entries of the source, which are not always exact repeats. Equal values may be shown once. This is one part of the list. For some assays here: The exact form of the protein is not confirmed.

Legend:
Experiment in all cases: protein microarray (ProtoArray v5.0), streptavidin-Alexa Fluor 647
Settings in all cases: 3'-biotin; 20 mM Tris (pH 7.5), 5 mM MgCl2, 100 mM KCl, 0.1% Tween-20, A/T-rich and random oligonucleotide blockers; temperature not stated; high values mean tight binding
[1] = tested on: TMEM25 (human)
[2] = tested on: TMEM41A (human)
[3] = tested on: TMEM98 (human)
[4] = tested on: TNFAIP8 (human)
[5] = tested on: TNFSF15 (human)
[6] = tested on: TNNC1 (human)
[7] = tested on: TNS1 (human)
[8] = tested on: TOM1-like protein 2 (human)
[9] = target: T1, TP53I3 (UniProt Q53FA7)
T1 sequence: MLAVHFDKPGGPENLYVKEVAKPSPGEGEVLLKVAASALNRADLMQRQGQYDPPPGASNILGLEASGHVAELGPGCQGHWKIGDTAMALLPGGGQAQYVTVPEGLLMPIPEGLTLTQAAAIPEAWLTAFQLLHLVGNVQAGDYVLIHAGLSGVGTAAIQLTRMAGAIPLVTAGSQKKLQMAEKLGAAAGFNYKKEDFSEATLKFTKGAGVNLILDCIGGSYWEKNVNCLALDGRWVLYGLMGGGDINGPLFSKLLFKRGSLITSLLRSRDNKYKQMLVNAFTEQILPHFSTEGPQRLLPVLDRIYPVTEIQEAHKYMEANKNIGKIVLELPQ

[10] = tested on: TPM1 (human)
[11] = tested on: TPM3 (human)
[12] = tested on: TPM4 (human)
[13] = tested on: TPP1 (human)
[14] = tested on: TPT1 (human)
[15] = tested on: TRA16 (human)
[16] = tested on: TRAPPC3 (human)
[17] = tested on: TRBV5-4 (human)
[18] = tested on: TRIM11 (human)
[19] = target: T2, TRIM31 (UniProt Q9BZY9)
T2 sequence: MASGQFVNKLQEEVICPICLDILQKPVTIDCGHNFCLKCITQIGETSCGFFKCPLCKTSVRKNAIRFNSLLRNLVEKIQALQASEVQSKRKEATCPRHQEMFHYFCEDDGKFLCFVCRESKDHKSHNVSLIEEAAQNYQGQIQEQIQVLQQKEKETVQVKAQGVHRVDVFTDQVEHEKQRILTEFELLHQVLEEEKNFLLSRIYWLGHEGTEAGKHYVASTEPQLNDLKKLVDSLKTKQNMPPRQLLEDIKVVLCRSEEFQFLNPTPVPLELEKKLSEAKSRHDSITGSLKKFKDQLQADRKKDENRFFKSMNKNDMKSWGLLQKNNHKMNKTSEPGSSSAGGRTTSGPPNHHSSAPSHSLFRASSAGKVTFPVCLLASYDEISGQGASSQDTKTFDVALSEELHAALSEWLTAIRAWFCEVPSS

[20] = tested on: TRIM32 (human)

## GGGGACAGGGGTATGGGGAGGGG [G4-3 biotinylated (CtG)]
[1]
  binding signal: -0.336 z-score
[2]
  binding signal: -0.316 z-score
[3]
  binding signal: -0.318 z-score
[4]
  binding signal: -0.329 z-score
[5]
  binding signal: -0.322 z-score
[6]
  binding signal: -0.306 z-score
[7]
  binding signal: -0.298 z-score
[8]
  binding signal: -0.343 z-score
[9]
  binding signal: 3.36 z-score
[10]
  binding signal: -0.316 z-score
[11]
  binding signal: -0.338 z-score and -0.331 z-score
[12]
  binding signal: -0.319 z-score
[13]
  binding signal: -0.33 z-score
[14]
  binding signal: -0.334 z-score
[15]
  binding signal: -0.33 z-score
[16]
  binding signal: -0.331 z-score
[17]
  binding signal: -0.318 z-score
[18]
  binding signal: -0.336 z-score
[19]
  binding signal: -0.314 z-score
[20]
  binding signal: -0.308 z-score
